Measured values: publication PMC7819943, “Rice protein-binding microarrays: a tool to detect cis-acting elements near promoter regions in rice”
The other results are listed elsewhere or left out.

By UniProt entry, the sequences of proteins in these tests, tags left out.
UniProt Q0JBA9, entry or part of it: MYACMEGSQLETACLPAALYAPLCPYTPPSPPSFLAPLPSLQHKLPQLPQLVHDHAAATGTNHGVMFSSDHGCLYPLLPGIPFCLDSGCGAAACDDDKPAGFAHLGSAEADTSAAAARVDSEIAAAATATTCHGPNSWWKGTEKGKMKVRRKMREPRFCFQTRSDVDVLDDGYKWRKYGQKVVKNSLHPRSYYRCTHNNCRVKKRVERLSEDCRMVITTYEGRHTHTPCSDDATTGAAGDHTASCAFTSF

Molecular target: OsWRKY34 (Oryza sativa, UniProt Q0JBA9 1-250)
Assay: protein-binding microarray (RPBM); PBS, 2% BSA, 51.3 ng/ul salmon testes DNA, 50 uM zinc acetate, 200 nM TF, 25 C, 1 h; high values mean tight binding
Details: protein: recombinant; tags: N-terminal polyhistidine and DsRed monomer fusion (pET32a); label: CyDye5-dUTP incorporated in the synthesized complementary strand; 3' TTTTT single-stranded linker to array surface; dsDNA, one strand shown
How it was run: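 Per-feature fluorescence intensity (arbitrary units), read on an Axon 4000B scanner, is the binding signal. Transcription factors carrying an N-terminal polyhistidine tag and DsRed fusion were expressed in E. coli BL21-CodonPlus and purified on Ni–NTA. A custom Agilent array, made double-stranded by primer extension with Cy5-dUTP and blocked with 2% BSA, was incubated with 200 nM protein in PBS, 2% BSA, salmon testes DNA and 50 µM zinc acetate at 25 °C for 1 h and then washed.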

Sequence | binding signal
AGAGATGGTAGTGGTAAAGCGGAGGAGGGGTGGGGTGTTGCGGAGTCACCTAGTGCAG | 16700 fluorescence intensity (a.u.)
GTACACACTCTTGCATAGTGATCACAATGTTATATTCTTTCGGAGTCACCTAGTGCAG | 8060 fluorescence intensity (a.u.)
GTTAATGAACCGTTCCGTTTTCCGTGTTACTGTAGCGCGCCGGAGTCACCTAGTGCAG | 8220 fluorescence intensity (a.u.)
TCTGCATGCCTCCGATTGCCTTCTCATGTTGATGTGAACACGGAGTCACCTAGTGCAG | 8360 fluorescence intensity (a.u.)
TGTGTTATGCTTGTATGTTGAGCTTTATAGTTCCTACTAACGGAGTCACCTAGTGCAG | 8320 fluorescence intensity (a.u.)
AACTAGCTGCCCTTCCCTTGCATCCTATTCCTTCCCTGCACGGAGTCACCTAGTGCAG | 8250 fluorescence intensity (a.u.)
AACACTTATTTCACACGTGGATTGTGCGTTTATGCTTTGACGGAGTCACCTAGTGCAG | 12300 fluorescence intensity (a.u.)
AATTGAATTCATGATTTCCTTGGTTGGTCTGTCACATTATCGGAGTCACCTAGTGCAG | 8200 fluorescence intensity (a.u.)
TACATGTCTTAGAGCTACACATCTCTGATTTTTTTTTACACGGAGTCACCTAGTGCAG | 8950 fluorescence intensity (a.u.)
GTTGCAATGCTGGTTAGTTTGACTTCTCACTTTAAGAATTCGGAGTCACCTAGTGCAG | 9010 fluorescence intensity (a.u.)
AGGATTATCTCGTTACATGTTCTTTCGTTCTCGTGTTGCACGGAGTCACCTAGTGCAG | 9770 fluorescence intensity (a.u.)
TGGCTTCGTACGTGTACCCGTCTGCTGCGATGTGAGGATCCGGAGTCACCTAGTGCAG | 10000 fluorescence intensity (a.u.)
CTGAATCCCGCCCGGTGTTTGAGTGCCTTCGCCTATGCTGCGGAGTCACCTAGTGCAG | 8250 fluorescence intensity (a.u.)
CTACTATTTGCATATCTTATCCGTTGCAGGGTCAAACTGACGGAGTCACCTAGTGCAG | 8280 fluorescence intensity (a.u.)
ACCTCTTCTCCCCGCGCTGGCTCGACATCTGGCGCGCCGACGGAGTCACCTAGTGCAG | 8130 fluorescence intensity (a.u.)
ATTAATGGGCTCTTTTGTTTCTATGGAATTTTGCGAAAAACGGAGTCACCTAGTGCAG | 8480 fluorescence intensity (a.u.)
ACCCCAAGTCCCCATCCACTCCACCACCCCGGCCATTCCACGGAGTCACCTAGTGCAG | 9290 fluorescence intensity (a.u.)
TTCCTTTGAGTATATCTCTCTCATCCTGTTCGTGCGTTTTCGGAGTCACCTAGTGCAG | 8480 fluorescence intensity (a.u.)
GGATCAGGTGGAGGAATAGCGATGGGAGGGGTGGTGGTTGCGGAGTCACCTAGTGCAG | 13800 fluorescence intensity (a.u.)
CTGTTTTAGGCATTACTCAAATTTTATAGGAATTAAATAACGGAGTCACCTAGTGCAG | 8050 fluorescence intensity (a.u.)
AGGGCGTATTGTGGTGCACACTTGTCGTTTGACCTTTTAACGGAGTCACCTAGTGCAG | 12700 fluorescence intensity (a.u.)

Sequence | binding signal
AATTCTATCCTCCACCTTTTGCTGCCGCTCTCGCCATACCCGGAGTCACCTAGTGCAG | 11100 fluorescence intensity (a.u.)
GTTTGTTTCGGCCTGTTTACCTTTCTCCTTATCCTTGGATCGGAGTCACCTAGTGCAG | 11700 fluorescence intensity (a.u.)
GGGAGACGGTGGCGGCGGGGACTGGGGCTCGAGGGAGATGCGGAGTCACCTAGTGCAG | 8070 fluorescence intensity (a.u.)
GATGAGGGTGGGGCAAAGGGTCTCTTGTCATATAACCTCGCGGAGTCACCTAGTGCAG | 15400 fluorescence intensity (a.u.)
CCGATATTCGAAACACGCTCCGCATCCGCACCCGTTTTTTCGGAGTCACCTAGTGCAG | 8710 fluorescence intensity (a.u.)
ACTGCGGCTTCTCTCTTGCTTCTTTTGGCCGTTTGCAAAGCGGAGTCACCTAGTGCAG | 12800 fluorescence intensity (a.u.)
TTCAATTGGACGCGTCGCGGTCGCGATCCGCCGATCGATCCGGAGTCACCTAGTGCAG | 8380 fluorescence intensity (a.u.)
ATATAACCCGCTGCTCTTCTCTCTCATCTTTTATCTTATTCGGAGTCACCTAGTGCAG | 9410 fluorescence intensity (a.u.)
GAGCCTCTATTTCTACTTCTCCACCTTTTACGGTTGAGAGCGGAGTCACCTAGTGCAG | 9200 fluorescence intensity (a.u.)
CATTTCTCATTTAATTCTTTTACCTACTTTCTCATCTTAACGGAGTCACCTAGTGCAG | 9200 fluorescence intensity (a.u.)
ACATACCATCGTTATTTGCATGTCAACCAAACCAAATGGTCGGAGTCACCTAGTGCAG | 8990 fluorescence intensity (a.u.)
CGGTGGGAGTGGGATAAAGGGACGTGGGGCGAGGTAGACCCGGAGTCACCTAGTGCAG | 13400 fluorescence intensity (a.u.)
ATTTCTACTGTAGCTACCATCTTTTTCAGTACTTCTAGTTCGGAGTCACCTAGTGCAG | 11000 fluorescence intensity (a.u.)
CTATCCATATTCCTGTGAGTTAATATCTTCTCATATAAAACGGAGTCACCTAGTGCAG | 8130 fluorescence intensity (a.u.)
CCCCACCAATCACCGCAGCTAGAACTCCCTCCGTCCCGTTCGGAGTCACCTAGTGCAG | 9740 fluorescence intensity (a.u.)
CTTTGTATCGTTCACAATATCTCTGTTCTTGTTGTTCTTCCGGAGTCACCTAGTGCAG | 11800 fluorescence intensity (a.u.)
CGCTAATCCTGACCCTCTCCCTCTACTTCCAATCTCATCTCGGAGTCACCTAGTGCAG | 9110 fluorescence intensity (a.u.)
GAGAGATTTAAGCACACAAGCCCAACCAAAGTCAACGCCACGGAGTCACCTAGTGCAG | 10600 fluorescence intensity (a.u.)
CAAAGATTTTGCCGAGTTGGGCGGGTTAATAATAATAATACGGAGTCACCTAGTGCAG | 9840 fluorescence intensity (a.u.)
CCTCAAGTTATTATCACTGTTTCTCTCACTCTCTCGTGATCGGAGTCACCTAGTGCAG | 10600 fluorescence intensity (a.u.)
CATTCCATTTTCTTTAGGAGTGGTCTTGATCCATTTTTATCGGAGTCACCTAGTGCAG | 9560 fluorescence intensity (a.u.)

Sequence | binding signal
GCCGCCTCCACCAAATCCCCTACGGTCACCACCACTCGTTCGGAGTCACCTAGTGCAG | 8560 fluorescence intensity (a.u.)
CTCCCTATTGTTTATGTGTCGGACCTGGCATGCGGCCTATCGGAGTCACCTAGTGCAG | 8760 fluorescence intensity (a.u.)
AAACCTGACTGTTGTTATTCCAAAGTTACAAAGCTAATTTCGGAGTCACCTAGTGCAG | 8500 fluorescence intensity (a.u.)
GCACCGTGCACTATCTTGATTTTTGGCCATTTAACTGTTTCGGAGTCACCTAGTGCAG | 8760 fluorescence intensity (a.u.)
GCATGTTGGCTTGTATGTTGATCTTGTGTCTTGATCTATTCGGAGTCACCTAGTGCAG | 9680 fluorescence intensity (a.u.)
TCACATGCCAATTCAGCTGGTTAGACTAGATCAACCCAGTCGGAGTCACCTAGTGCAG | 8310 fluorescence intensity (a.u.)
CTTCATTCGATTTATAGGCCCCAGCACTGCATGCGTATCCCGGAGTCACCTAGTGCAG | 9450 fluorescence intensity (a.u.)
CGGGGAGGGGAGGGCTGTGAAATCCTAGGGTTGGGCGAAGCGGAGTCACCTAGTGCAG | 15000 fluorescence intensity (a.u.)
GCCAAAATCCCGGCCCATACACGTTGGAGTAAGTCCACTTCGGAGTCACCTAGTGCAG | 8230 fluorescence intensity (a.u.)
TAAGGTAAACGGTCAAATATTTTTAAAAAAGTCAACGATACGGAGTCACCTAGTGCAG | 10500 fluorescence intensity (a.u.)
GCCCGCCACGTCTCTAAGTCGCTAGTACGCGCGAATTAGCCGGAGTCACCTAGTGCAG | 8280 fluorescence intensity (a.u.)
GATCAATTATTACCTTGCTTATTCCTAATATCTATACTAACGGAGTCACCTAGTGCAG | 8760 fluorescence intensity (a.u.)
CACTTTTTCATGGATTTTTACTTATTTAATGATTTTTTATCGGAGTCACCTAGTGCAG | 8240 fluorescence intensity (a.u.)
ATGCTGCTGAGGTTGACCTTTATTTAAGAATACCCTAGCGCGGAGTCACCTAGTGCAG | 8840 fluorescence intensity (a.u.)
TTAGTGATTTGTATTTTTATTTTAATGCGTGATTTTTTTACGGAGTCACCTAGTGCAG | 8980 fluorescence intensity (a.u.)
AACAAATTTGACTATAAATAGAACGCGTATTTCATGCTCACGGAGTCACCTAGTGCAG | 8460 fluorescence intensity (a.u.)
TTTTCATGTATTTATATATTTTTATACGTTTATCAGTTATCGGAGTCACCTAGTGCAG | 9880 fluorescence intensity (a.u.)
TGGTTACTGGCGGTGCCTAAAGGTTTCTTTTCTTGATTATCGGAGTCACCTAGTGCAG | 8220 fluorescence intensity (a.u.)
TAATCATACGCTAATGGCTCACATCGTTTTGCATATCTTTCGGAGTCACCTAGTGCAG | 8720 fluorescence intensity (a.u.)
TGTTTGCAATGCTCTCGTCCTCATCCATTTCGTCCAAGAACGGAGTCACCTAGTGCAG | 11600 fluorescence intensity (a.u.)
GCTGGGAGATTTCTTCTGTTTGTTCTTTTGTTTCGTCGTGCGGAGTCACCTAGTGCAG | 9400 fluorescence intensity (a.u.)

Sequence | binding signal
CACGAGCTCTCGTCTCGCCGCGTCCACACCAATCGGCGCCCGGAGTCACCTAGTGCAG | 9490 fluorescence intensity (a.u.)
GGTAAGTCTTGCTCCTTCAGTATTAAGCCTACTGTTTGAACGGAGTCACCTAGTGCAG | 8050 fluorescence intensity (a.u.)
CCACTGCTATATATGTTCCTCGTTTTCCGCTGGCCAGTCACGGAGTCACCTAGTGCAG | 13400 fluorescence intensity (a.u.)
GCTGTTTGACTTTTTCTTAATTAAGCTTCTTTATGTTTGACGGAGTCACCTAGTGCAG | 19700 fluorescence intensity (a.u.)
GGCCTATCCCACACTATTCATCCGTTGGCCCAATACAAATCGGAGTCACCTAGTGCAG | 9340 fluorescence intensity (a.u.)
GGTATCTGTTTTTAGTTCGTGCCACACTTATGGCAAGATTCGGAGTCACCTAGTGCAG | 10900 fluorescence intensity (a.u.)
AGGATGTGTCTCGCATCAGTTCTATCTTGTTTTTTTTTATCGGAGTCACCTAGTGCAG | 9200 fluorescence intensity (a.u.)
AAATCCCACCCAAAATTTTTTATTGTCACATCGAACGTTTCGGAGTCACCTAGTGCAG | 8930 fluorescence intensity (a.u.)
CGCTCTCTTGTTGACCACCTCGCGTTGCACTGGGCCAGCCCGGAGTCACCTAGTGCAG | 9490 fluorescence intensity (a.u.)
TTTGCTGCTGCTGCTTCTAGGGTTAGGGTTTGGGGTGGGGCGGAGTCACCTAGTGCAG | 22100 fluorescence intensity (a.u.)
CCAAACCAAACCAAATCTTTCAGTCCTTGTCACACAGATCCGGAGTCACCTAGTGCAG | 8030 fluorescence intensity (a.u.)
TAGCACCATTATACATTCATTTTCACAAAGAAAATATATCCGGAGTCACCTAGTGCAG | 8350 fluorescence intensity (a.u.)
CCTCCGCCGCCATCCATCTATTCGCGCCGCACCGCCCGCTCGGAGTCACCTAGTGCAG | 10400 fluorescence intensity (a.u.)
AGGTTTTGTTAGAGAATTTTAGTGGTATTGTAGCCTATTTCGGAGTCACCTAGTGCAG | 8190 fluorescence intensity (a.u.)
GGTTGTCTATGTGGAGCTTTACCTCTTTCTTCTTCTTCTTCGGAGTCACCTAGTGCAG | 10300 fluorescence intensity (a.u.)
TGTCGACCGAGCCAAGAACCCTCGCCCACACACACACACACGGAGTCACCTAGTGCAG | 10200 fluorescence intensity (a.u.)
TAGTCTGTACCCTACGCCATCCCAGGAATCCGCGCCCTGGCGGAGTCACCTAGTGCAG | 8620 fluorescence intensity (a.u.)
CCCTCCACAACTTTCCTTTTCTTTGAGAATGGATTCCCTCCGGAGTCACCTAGTGCAG | 10100 fluorescence intensity (a.u.)
CCTCATTAGCTAGCTTTTTAGGGTGGGGAAGGCCCTTTACCGGAGTCACCTAGTGCAG | 12700 fluorescence intensity (a.u.)
CGCTTCCCACAACTTGCAGTCACGGTCAACACGAAACGAACGGAGTCACCTAGTGCAG | 9350 fluorescence intensity (a.u.)
GCTTAAGTTTTAACCATTCCTGACACGTTTAACAGCGAATCGGAGTCACCTAGTGCAG | 8360 fluorescence intensity (a.u.)

Shown with tabs: entries from further up
Sequence	binding signal
GGATCAGGTGGAGGAATAGCGATGGGAGGGGTGGTGGTTGCGGAGTCACCTAGTGCAG	13800 fluorescence intensity (a.u.)
CTGTTTTAGGCATTACTCAAATTTTATAGGAATTAAATAACGGAGTCACCTAGTGCAG	8050 fluorescence intensity (a.u.)
AGGGCGTATTGTGGTGCACACTTGTCGTTTGACCTTTTAACGGAGTCACCTAGTGCAG	12700 fluorescence intensity (a.u.)
AATTCTATCCTCCACCTTTTGCTGCCGCTCTCGCCATACCCGGAGTCACCTAGTGCAG	11100 fluorescence intensity (a.u.)

An excerpt of these results, tab-delimited.
Sequence	binding signal
GGTATCTGTTTTTAGTTCGTGCCACACTTATGGCAAGATTCGGAGTCACCTAGTGCAG	10900 fluorescence intensity (a.u.)
AGGATGTGTCTCGCATCAGTTCTATCTTGTTTTTTTTTATCGGAGTCACCTAGTGCAG	9200 fluorescence intensity (a.u.)
AAATCCCACCCAAAATTTTTTATTGTCACATCGAACGTTTCGGAGTCACCTAGTGCAG	8930 fluorescence intensity (a.u.)
